Article PMC6555932
Results are given in words; binding and its absence hold for the method and conditions named. Some entries that bind do so weakly or less than the wild type.

Protein sequences, listed by entry. Tags and fused reporters are not part of them. Residues count along the entry.
UniProt P05067, residues 672-713: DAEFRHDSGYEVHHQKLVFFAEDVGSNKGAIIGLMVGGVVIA

Target: Oligomerized amyloid β protein 1-42 (UniProt P05067)
Assay: far-Western, overlay or dot blot; 2 μL of oligomerized Aβ (100 μM; 0.2 nmol) or purified GFP (approx. 50 μM; 0.1 nmol) spotted on nitrocellulose, blocked in 0.3% BSA in PBS, incubated with a mixture of purified hMIF and GFP at approx. 5 μM at 4 °C overnight; detected with anti-MIF (D-2) and polyclonal anti-GFP antibodies; both purified

B1: Macrophage migration inhibitory factor (human, recombinant) (protein, UniProt P14174 1-115)
chain: MPMFIVNTNVPRASVPDGFLSELTQQLAQATGKPPQYIAVHVVPDQLMAFGGSSEPCALCSLHSIGKIGGAQNRSYSKLLCGLLAERLRISPDRVYINYYDMNAANVGWNNSTFA
binding: binds
